Where two headings read alike, the source gives them in different places. These are yes or no findings as the source states them, for the method shown. In cells and extracts the contact can be indirect. Some results given as binding are weak or reduced against the parent protein; the word gives no strength. One block for each molecule: values may come before it.
Key:
[1] = target: Tiam1 (endogenous, mouse cortical neurons) (mouse (endogenous in primary cortical neurons)) (UniProt Q60610); assay: proximity ligation
[2] = target: T1, Kcnj6 (endogenous, mouse cortical neurons) (mouse (endogenous in primary cortical neurons)) (UniProt P48542); assay: proximity ligation
T1 sequence: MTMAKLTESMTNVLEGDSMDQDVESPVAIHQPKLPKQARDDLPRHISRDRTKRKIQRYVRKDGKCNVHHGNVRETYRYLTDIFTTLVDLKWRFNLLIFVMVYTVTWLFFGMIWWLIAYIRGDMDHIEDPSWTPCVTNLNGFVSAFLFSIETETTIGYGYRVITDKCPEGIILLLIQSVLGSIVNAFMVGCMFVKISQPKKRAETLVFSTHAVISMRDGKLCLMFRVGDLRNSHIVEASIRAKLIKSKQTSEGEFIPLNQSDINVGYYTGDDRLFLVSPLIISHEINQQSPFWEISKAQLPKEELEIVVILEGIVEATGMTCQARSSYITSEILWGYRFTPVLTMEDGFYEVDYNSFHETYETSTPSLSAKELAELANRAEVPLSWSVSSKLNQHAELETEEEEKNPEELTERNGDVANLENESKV

Sequences of proteins named here, by UniProt entry; tags and fusion partners are left off. Residues count along the entry.
UniProt Q9Z0R4: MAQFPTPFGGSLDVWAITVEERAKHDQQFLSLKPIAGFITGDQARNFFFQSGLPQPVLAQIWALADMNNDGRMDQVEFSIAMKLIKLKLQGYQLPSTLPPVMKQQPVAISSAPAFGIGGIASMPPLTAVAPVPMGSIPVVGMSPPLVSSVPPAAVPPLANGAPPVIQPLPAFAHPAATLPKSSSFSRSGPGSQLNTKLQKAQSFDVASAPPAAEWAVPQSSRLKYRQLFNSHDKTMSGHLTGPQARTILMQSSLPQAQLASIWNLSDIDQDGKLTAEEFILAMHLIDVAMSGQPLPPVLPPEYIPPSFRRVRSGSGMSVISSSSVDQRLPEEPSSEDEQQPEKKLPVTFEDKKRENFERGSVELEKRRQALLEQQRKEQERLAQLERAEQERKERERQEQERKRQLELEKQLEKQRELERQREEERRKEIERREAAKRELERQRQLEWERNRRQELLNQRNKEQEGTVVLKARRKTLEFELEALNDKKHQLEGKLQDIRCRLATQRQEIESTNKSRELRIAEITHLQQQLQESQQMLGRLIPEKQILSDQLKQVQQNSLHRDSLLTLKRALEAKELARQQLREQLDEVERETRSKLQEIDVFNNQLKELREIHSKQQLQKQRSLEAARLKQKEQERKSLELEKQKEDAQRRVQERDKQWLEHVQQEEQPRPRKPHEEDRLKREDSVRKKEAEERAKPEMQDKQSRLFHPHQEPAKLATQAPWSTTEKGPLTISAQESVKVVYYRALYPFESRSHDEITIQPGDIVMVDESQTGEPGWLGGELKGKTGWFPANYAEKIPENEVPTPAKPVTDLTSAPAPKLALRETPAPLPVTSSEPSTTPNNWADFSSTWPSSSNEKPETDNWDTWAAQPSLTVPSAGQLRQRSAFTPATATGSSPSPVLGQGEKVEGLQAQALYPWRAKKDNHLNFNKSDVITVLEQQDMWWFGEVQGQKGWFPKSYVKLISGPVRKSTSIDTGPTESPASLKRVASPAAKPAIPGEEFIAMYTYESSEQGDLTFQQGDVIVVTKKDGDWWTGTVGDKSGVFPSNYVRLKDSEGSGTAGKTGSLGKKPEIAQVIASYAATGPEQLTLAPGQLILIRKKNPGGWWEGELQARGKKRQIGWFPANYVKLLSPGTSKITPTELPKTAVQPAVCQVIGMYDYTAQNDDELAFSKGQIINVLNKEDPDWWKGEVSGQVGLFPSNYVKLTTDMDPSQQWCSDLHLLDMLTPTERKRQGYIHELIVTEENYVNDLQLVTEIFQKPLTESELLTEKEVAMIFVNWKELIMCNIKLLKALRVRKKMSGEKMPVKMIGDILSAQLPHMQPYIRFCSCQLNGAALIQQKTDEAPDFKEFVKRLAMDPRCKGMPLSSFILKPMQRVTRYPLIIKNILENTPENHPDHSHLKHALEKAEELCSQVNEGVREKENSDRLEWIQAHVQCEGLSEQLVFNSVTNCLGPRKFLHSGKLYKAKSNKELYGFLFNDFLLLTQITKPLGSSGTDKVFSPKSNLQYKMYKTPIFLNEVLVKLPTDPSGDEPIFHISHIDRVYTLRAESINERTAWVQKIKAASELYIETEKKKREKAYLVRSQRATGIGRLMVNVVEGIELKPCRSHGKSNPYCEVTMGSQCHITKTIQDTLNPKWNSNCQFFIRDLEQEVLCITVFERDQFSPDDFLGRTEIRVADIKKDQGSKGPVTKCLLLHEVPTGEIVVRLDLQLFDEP
UniProt Q60934, residues 31-836: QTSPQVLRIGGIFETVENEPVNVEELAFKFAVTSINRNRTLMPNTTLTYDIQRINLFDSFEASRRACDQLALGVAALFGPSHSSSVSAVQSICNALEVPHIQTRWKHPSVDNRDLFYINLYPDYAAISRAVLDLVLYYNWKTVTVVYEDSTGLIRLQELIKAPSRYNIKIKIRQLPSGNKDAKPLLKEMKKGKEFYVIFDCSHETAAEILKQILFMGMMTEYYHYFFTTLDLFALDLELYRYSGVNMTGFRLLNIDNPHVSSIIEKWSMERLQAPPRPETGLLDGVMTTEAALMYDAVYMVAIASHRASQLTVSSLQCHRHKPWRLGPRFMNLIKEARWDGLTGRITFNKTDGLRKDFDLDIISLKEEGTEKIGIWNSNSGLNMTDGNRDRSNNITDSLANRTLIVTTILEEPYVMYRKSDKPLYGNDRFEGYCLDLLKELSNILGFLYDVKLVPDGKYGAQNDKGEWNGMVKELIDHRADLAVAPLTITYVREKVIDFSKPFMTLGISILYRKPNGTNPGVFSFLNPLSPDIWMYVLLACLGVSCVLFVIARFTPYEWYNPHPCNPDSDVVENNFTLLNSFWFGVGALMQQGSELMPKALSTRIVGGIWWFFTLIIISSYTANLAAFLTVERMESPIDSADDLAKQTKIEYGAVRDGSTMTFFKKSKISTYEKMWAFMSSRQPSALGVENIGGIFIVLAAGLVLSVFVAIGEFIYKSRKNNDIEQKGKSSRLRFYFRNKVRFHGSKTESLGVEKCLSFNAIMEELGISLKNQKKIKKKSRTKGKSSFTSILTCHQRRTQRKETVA
UniProt Q811D0: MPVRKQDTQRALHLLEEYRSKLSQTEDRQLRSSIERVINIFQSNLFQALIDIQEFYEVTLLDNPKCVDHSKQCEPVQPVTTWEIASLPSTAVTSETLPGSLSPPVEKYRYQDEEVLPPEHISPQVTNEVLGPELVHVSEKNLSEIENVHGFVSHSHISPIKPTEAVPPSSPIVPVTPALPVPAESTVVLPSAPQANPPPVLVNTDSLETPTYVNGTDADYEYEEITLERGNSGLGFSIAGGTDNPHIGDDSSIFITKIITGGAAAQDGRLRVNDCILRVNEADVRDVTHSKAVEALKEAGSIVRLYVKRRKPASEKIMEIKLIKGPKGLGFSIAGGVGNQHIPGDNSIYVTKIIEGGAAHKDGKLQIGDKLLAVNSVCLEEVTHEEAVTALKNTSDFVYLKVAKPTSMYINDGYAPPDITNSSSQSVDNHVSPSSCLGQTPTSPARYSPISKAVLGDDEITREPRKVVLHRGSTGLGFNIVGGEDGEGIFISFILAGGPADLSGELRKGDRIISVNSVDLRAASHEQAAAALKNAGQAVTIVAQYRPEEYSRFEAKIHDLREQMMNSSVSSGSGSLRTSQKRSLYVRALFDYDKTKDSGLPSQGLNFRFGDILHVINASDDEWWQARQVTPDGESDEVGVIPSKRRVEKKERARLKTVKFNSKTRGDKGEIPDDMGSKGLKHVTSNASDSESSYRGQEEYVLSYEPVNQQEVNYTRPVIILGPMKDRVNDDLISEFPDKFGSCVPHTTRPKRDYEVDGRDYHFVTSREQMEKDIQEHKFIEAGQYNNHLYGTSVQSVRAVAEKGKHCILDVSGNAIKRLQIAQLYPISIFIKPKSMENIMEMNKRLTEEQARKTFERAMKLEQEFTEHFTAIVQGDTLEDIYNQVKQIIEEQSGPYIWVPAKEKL
UniProt P60879: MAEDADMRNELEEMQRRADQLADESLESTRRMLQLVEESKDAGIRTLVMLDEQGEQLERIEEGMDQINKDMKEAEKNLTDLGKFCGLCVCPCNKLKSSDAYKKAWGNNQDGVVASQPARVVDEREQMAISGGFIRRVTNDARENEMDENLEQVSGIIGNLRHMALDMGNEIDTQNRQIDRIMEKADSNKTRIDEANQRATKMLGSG
UniProt Q8C0T5: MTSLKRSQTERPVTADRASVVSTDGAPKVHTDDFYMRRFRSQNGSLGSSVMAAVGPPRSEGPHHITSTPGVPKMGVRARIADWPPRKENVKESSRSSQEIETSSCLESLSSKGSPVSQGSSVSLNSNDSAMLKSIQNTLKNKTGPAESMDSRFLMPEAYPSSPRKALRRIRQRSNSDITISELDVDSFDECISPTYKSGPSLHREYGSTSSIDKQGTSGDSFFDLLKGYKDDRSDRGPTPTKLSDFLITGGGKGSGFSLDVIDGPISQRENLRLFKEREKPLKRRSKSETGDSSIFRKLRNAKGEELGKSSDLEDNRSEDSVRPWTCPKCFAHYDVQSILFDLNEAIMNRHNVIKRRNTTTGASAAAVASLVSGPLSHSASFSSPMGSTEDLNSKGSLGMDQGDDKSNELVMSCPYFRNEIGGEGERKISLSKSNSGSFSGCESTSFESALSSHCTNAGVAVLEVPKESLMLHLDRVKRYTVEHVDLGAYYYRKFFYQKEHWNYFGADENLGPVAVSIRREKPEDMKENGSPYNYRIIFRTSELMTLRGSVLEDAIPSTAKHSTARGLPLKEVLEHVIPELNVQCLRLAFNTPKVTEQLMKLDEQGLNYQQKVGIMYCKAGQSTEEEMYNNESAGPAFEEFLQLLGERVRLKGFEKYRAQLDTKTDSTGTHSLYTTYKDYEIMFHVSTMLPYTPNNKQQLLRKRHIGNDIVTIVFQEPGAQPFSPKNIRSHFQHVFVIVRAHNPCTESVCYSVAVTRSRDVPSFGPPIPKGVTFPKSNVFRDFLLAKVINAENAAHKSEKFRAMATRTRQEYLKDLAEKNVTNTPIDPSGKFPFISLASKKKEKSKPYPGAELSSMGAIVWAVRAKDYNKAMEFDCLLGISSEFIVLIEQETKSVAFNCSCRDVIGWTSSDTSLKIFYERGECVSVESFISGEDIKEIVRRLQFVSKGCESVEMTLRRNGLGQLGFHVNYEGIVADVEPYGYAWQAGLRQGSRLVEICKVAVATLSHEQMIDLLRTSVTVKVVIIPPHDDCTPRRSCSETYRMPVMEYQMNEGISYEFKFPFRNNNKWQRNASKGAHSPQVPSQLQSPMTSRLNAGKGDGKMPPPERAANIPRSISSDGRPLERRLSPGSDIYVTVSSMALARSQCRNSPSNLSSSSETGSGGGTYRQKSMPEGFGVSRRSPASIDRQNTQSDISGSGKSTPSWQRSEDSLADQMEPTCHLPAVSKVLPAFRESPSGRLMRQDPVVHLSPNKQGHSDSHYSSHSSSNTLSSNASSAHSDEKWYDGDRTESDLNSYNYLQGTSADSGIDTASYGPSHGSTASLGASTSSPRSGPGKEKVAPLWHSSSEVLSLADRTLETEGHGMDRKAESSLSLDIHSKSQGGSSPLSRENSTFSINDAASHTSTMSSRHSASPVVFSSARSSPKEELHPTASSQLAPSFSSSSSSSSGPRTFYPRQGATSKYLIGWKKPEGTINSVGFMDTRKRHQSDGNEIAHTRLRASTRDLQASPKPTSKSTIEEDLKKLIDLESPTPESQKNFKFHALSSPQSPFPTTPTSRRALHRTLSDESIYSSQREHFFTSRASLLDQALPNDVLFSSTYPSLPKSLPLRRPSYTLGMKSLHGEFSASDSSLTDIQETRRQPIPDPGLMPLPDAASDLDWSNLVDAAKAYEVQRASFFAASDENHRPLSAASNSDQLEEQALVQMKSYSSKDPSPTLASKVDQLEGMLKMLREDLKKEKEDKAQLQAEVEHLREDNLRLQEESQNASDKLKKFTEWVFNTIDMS

[3] = target: Dyrk1a (endogenous, mouse) (mouse (endogenous in cortical neurons and adult cortex)) (UniProt Q61214); assay: co-IP
[4] = target: Dyrk1a (endogenous, mouse) (mouse (endogenous in cortical neurons and adult cortex)) (UniProt Q61214); assay: co-IP; remark: listed apart in the source
[5] = target: Dyrk1a (endogenous, mouse) (mouse (endogenous in cortical neurons and adult cortex)) (UniProt Q61214); assay: proximity ligation
[6] = target: Itsn1 (endogenous, mouse cortical neurons) (mouse (endogenous in primary cortical neurons)) (UniProt Q9Z0R4); assay: proximity ligation
[7] = target: Grik1 (endogenous, mouse cortical neurons) (mouse (endogenous in primary cortical neurons)) (UniProt Q60934); assay: proximity ligation
[8] = target: Itsn1 (endogenous, mouse cortical neurons) (mouse (endogenous in primary cortical neurons)) (UniProt Q9Z0R4); assay: proximity ligation; remark: listed apart in the source
[9] = target: T2, Hunk (endogenous, mouse cortical neurons) (mouse (endogenous in primary cortical neurons)) (UniProt O88866); assay: proximity ligation
T2 sequence: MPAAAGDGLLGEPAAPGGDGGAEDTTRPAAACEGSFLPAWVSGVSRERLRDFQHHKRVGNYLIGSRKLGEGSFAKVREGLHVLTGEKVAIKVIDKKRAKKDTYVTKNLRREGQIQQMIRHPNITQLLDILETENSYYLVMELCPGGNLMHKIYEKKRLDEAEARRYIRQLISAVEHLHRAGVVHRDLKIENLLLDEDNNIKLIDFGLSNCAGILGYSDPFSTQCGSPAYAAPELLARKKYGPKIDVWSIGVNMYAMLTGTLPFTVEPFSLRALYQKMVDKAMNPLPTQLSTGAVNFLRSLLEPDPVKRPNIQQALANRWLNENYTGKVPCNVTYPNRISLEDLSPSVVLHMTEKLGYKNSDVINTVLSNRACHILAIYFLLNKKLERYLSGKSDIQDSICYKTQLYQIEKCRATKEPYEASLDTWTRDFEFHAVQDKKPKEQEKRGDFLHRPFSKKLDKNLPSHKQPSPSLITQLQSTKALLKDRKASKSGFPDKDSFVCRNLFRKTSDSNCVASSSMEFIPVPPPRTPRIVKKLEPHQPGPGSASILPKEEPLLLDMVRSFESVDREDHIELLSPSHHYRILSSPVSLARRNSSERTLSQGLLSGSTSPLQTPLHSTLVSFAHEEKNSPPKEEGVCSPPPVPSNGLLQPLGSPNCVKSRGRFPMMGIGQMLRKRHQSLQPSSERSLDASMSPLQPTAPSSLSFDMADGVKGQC

Molecule: Dlg1 (endogenous, mouse cortical neurons) (from UniProt Q811D0 1-905)
binding [1]: binds | binding [2]: binds

Molecule: Dscam (endogenous, mouse) (from UniProt Q9ERC8 18-2013)
binding [3]: binds | binding [4]: binds

Molecule: Snap25 (endogenous, mouse cortical neurons) (from UniProt P60879 1-206)
binding [6]: binds

B1: Sept7 (endogenous, mouse cortical neurons) (protein, UniProt O55131 1-436)
chain: MSVSARSAAAEERSVNCGTMAQPKNLEGYVGFANLPNQVYRKSVKRGFEFTLMVVGESGLGKSTLINSLFLTDLYSPEYPGPSHRIKKTVQVEQSKVLIKEGGVQLLLTIVDTPGFGDAVDNSNCWQPVIDYIDSKFEDYLNAESRVNRRQMPDNRVQCCLYFIAPSGHGLKPLDIEFMKRLHEKVNIIPLIAKADTLTPEECQQFKKQIMKEIQEHKIKIYEFPETDDEEENKLVKKIKDRLPLAVVGSNTIIEVNGKRVRGRQYPWGVAEVENGEHCDFTILRNMLIRTHMQDLKDVTNNVHYENYRSRKLAAVTYNGVDNNKNKGQLTKSPLAQMEEERREHVAKMKKMEMEMEQVFEMKVKEKVQKLKDSEAELQRRHEQMKKNLEAQHKELEEKRRQFEEEKANWEAQQRILEQQNSSRTLEKNKKKGKIF
binding [7]: binds

B3: Synpo (endogenous, mouse cortical neurons) (protein, UniProt Q8CC35 1-929)
chain: MLGAHFPPPPLGASEGRAAPCTFQIPDGSYRCLALEAEESSSEDGLQGEVRLVDLEEEGTSQSRANHGTPPLSRAPAIIQPSSCHREARGGFQRSDRPSHDWDVVQARKVMTASGSSSPVPRVAQKPALGRSTSFTENDLKEAKARSQQIAAQLTTPPSSNSRGVQLFNRRRQRVNEFTLESRGQRSPKLNQEALQTGRPLSPIGHAPGPSVKPTSPSKPGSPKHPSPQSPSRGVAGHIMEGYSEEASLLRHLEKVASEEEEVPLVVYLKENAALLTANGLHLSQSRETQQSSPNPPDTEVPSPAADINQNPSSPNATLTTLASSSHHSQPTADINQNPPAAITPVPQNSSQAQCSPNGTLDSKPGTLCADDGQSPVPAEEVRSSILLIDKVSAPPSAASTFSREATPLSSSGPPAADLMSSSLLIDMQPSTLVAPAEQEVPGHVAVTTPTKVYSEVHLTLAKPASVVNRTARPFGIQSPGTSQIEQSPMMGRRQFGEKAWAPPASSMADRSPQPQRHIMSRSPMVERRLLGQRSPVLERRPLGNFTPPPTYAETLSTAPVASRVRSPPSYSTLYPSSDPKPSHLKGQVAPANKTGILEESMARRGSRKSMFTFVEKPKVTPNPDLLDLVQTADEKRRQRDHGEVGMEEEPFALGAEASNFQQEPIARDRASPAAAEEAVPEWASCLKSPRIQAKPKPKPNQNLSEASGKGAELYARRQSRMEKYVIESSGHAELARCPSPTMSLPSSWKYTTNAPGGFRVASLSPARTPPASLYHGYLPENGVLRPEPTKQQPYQMRPSLYALSPVKEPAKASSRATSSRTPSRTVSPRAASPAKPSSLDLVPNLPRAGLPPSPALPRPSRSSPGLYTAPVQDSLQPTAVSPTYSSDISPVSPSRAWSPRAKQAPRPSFSTRNAGIEAQVWKPSFCFK
binding [9]: binds

Other lines, results leading:

binding [5]: binds
Molecule: Sipa1l1 (endogenous, mouse cortical neurons) (from UniProt Q8C0T5 1-1782)

binding [8]: binds
B2: Dlgap1 (endogenous, mouse cortical neurons) (protein, UniProt Q9D415 1-992)
chain: MKGLSGSRSHHHGITCEAACDSLSHHSDHKPYLLSPVDHHPADHPYYTQRNSFQAECVGPFSDPLASSTFPRRHYTSQQELKDESALVPRTLATKANRLPTNLLDQFERQLPLSRDGYHTLQYKRTAVEHRSDSPGRIRHLVHSVQKLFTKSHSLEGPSKGSVNGGKASPDESQTLRYGKRSKSKERRSESKARSNASNASPTSPSWWSSDDNLDGDMCLYHTPSGVMTMGRCPDRSASQYFMEAYNTISEQAVKASRSNNDIKCSTCANLPVTLDAPLLKKSAWSSTLTVSRAREVYQKASVNMDQAMVKSEACQQERSCQYLQVPQDEWSGYTPRGKDDEIPCRRMRSGSYIKAMGDEDSGDSDTSPKPSPKVAARRESYLKATQPSLTELTTLKISNEHSPKLQIRSHSYLRAVSEVSINRSLDSLDPAGLLTSPKFRSRNESYMRAMSTISQVSEMEVNGQFESVCESVFSELESQAVEALDLPLPGCFRMRSHSYVRAIEKGCSQDDECVSLRSSSPPRTTTTVRTIQSSTGVIKLSSAVEVSSCITTYKKTPPPVPPRTTTKPFISITAQSSTESAQDAYMDGQGQRGDMISQSGLSNSTESLDSMKALTAAIEAANAQIHGPASQHMGSNAAAVTTTTTIATVTTEDRKKDFKKNRCLSIGIQVDDAEEPEKMAESKTSNKFQSVGVQVEEEKCFRRFTRSNSVTTAVQADLDFHDNLENSLESIEDNSCPGPMARQFSRDASTSTVSIQGSGNHYHACAADDDFDTDFDPSILPPPDPWIDSITEDPLEAVQRSVCHRDGHWFLKLLQAERDRMEGWCKLMEREERENNLPEDILGKIRTAVGSAQLLMAQKFYQFRELCEENLNPNAHPRPTSQDLAGFWDMLQLSIENISMKFDELHQLKANNWKQMDPLDKKERRAPPPVPKKPAKGPAPLIRERSLESSQRQEARKRLMAAKRAASVRQNSATESAESIEIYIPEAQTRL

— paper doi:10.1101/2019.12.11.872606
